Record: PubChem BioAssay AID1259405 (NCATS, 2018)
Assay: 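Mouse-designed siRNAs used to find CHO productivity engineering targets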 (primary screen). System: Chinese hamster CHO-K1 ovary cells with stable secreted eGFP expression. Reagent: single siRNA against mouse genes, 0.8 pmol siRNA per well (2 µl of 400 nM stock). Timing: 3 days. Detection: 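Percent of the per-plate non-targeting control median for intracellular GFP per well by laser scanning cytometry and for cell viability by ATP luminescence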. Reading the numbers: GFP, % of control: higher = more GFP per well, higher productivity. Active means: 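a knock-down is called active if GFP reaches 120% or more of non-targeting control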.
Shown is one part, drawn at random, of about 50,000 deposited reagents. About 4,000 of all reagents (8%) count as active. 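Mouse siRNA library applied to hamster cells; one well for each siRNA.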 Unmarked entries are inactive. The numbers tell different reagents against one gene apart. Not all columns of the deposit are shown.

GFP, % of control, by gene symbol and reagent
Atp2b4 (ATPase, Ca++ transporting, plasma membrane 4): #1 39.9; #2 55.4; #3 41.9
Nt5el (5' nucleotidase, ecto-like): #1 79.3; #2 104; #3 53.6
Or7g29 (olfactory receptor family 7 subfamily G member 29): #1 71.4; #2 36.6; #3 39.1
Tas2r120 (taste receptor, type 2, member 120): #1 45.7; #2 64.9; #3 66.6
Or5p73 (olfactory receptor family 5 subfamily P member 73): #1 47.5; #2 66.6; #3 50.9
Kcnh7: #1 101; #2 99.9; #3 85
Gphr (golgi pH regulator): #1 83.2; #2 101; #3 72.3
Pcdhb8 (protocadherin beta 8): #1 88.1; #2 120
Cdc37 (cell division cycle 37): #1 143 (active); #2 84.6; #3 75.9
Lsm14b (LSM family member 14B): #1 80.2; #2 80.6; #3 103
Klhl18 (kelch-like 18): #1 47.8; #2 58.1; #3 118
Gaa (glucosidase, alpha, acid): #1 103; #2 67.7; #3 84.4
Svs3b (seminal vesicle secretory protein 3B): #1 158 (active); #2 150 (active); #3 123 (active)
Ihh (Indian hedgehog): #1 61.1; #2 15.4; #3 32.4
Sftpa1 (surfactant associated protein A1): #1 141 (active); #2 81.2
F9 (coagulation factor IX): #1 15.6; #2 66.1; #3 57.1
Selenop (selenoprotein P): #1 34.1; #2 26.7; #3 52.3
Dhcr24 (24-dehydrocholesterol reductase): #1 83.6; #2 95.9
Gpcpd1 (glycerophosphocholine phosphodiesterase 1): #1 31.1; #2 99.1; #3 73.9
Kcnh2: #1 91.3; #2 97; #3 76.9
Grm8 (glutamate receptor, metabotropic 8): #1 79.2; #2 71.8; #3 62.6

15 successive records from above:
GFP, % of control, by gene symbol and reagent
Or7g29 (olfactory receptor family 7 subfamily G member 29): #1 71.4; #2 36.6; #3 39.1
Tas2r120 (taste receptor, type 2, member 120): #1 45.7; #2 64.9; #3 66.6
Or5p73 (olfactory receptor family 5 subfamily P member 73): #1 47.5; #2 66.6; #3 50.9
Kcnh7: #1 101; #2 99.9; #3 85
Gphr (golgi pH regulator): #1 83.2; #2 101; #3 72.3

More entries follow.
GFP, % of control, by gene symbol and reagent
Ppp1r21 (protein phosphatase 1, regulatory subunit 21): #1 103; #2 124 (active); #3 80.7
Wdr41 (WD repeat domain 41): #1 49.3; #2 74.9; #3 109
Pms1 (PMS1 homolog 1, mismatch repair system component): #1 133 (active); #2 83.3
Tcl1b2 (T cell leukemia/lymphoma 1B, 2): #1 108; #2 91.3; #3 156 (active)
Rtn1 (reticulon 1): #1 162 (active); #2 34.7; #3 77.2
Kyat1 (kynurenine aminotransferase 1): #1 89.8; #2 105; #3 87.6
Sds (serine dehydratase): #1 74.5; #2 81.2
Itpr2 (inositol 1,4,5-triphosphate receptor 2): #1 147 (active); #2 78; #3 69.4
Sema3a: #1 71.7; #2 28.4; #3 33.6
Plekhh2 (pleckstrin homology, MyTH4 and FERM domain containing H2): #1 60.8; #2 54.8; #3 70.9
Cib1 (calcium and integrin binding 1): #1 71.4
Mcm6 (minichromosome maintenance complex component 6): #1 123 (active); #2 98.2; #3 66.4
Pcdha6 (protocadherin alpha 6): #1 94.1; #2 37; #3 106
Tafa3 (TAFA chemokine like family member 3): #1 63.4; #2 82.2; #3 72.3
Bcl2a1c (B cell leukemia/lymphoma 2 related protein A1c): #1 66.9; #2 69.6; #3 43.1
Cpne4 (copine IV): #1 86.6; #2 88.1
Or4c11 (olfactory receptor family 4 subfamily C member 11): #1 57.9; #2 71.1; #3 48
Dgkq (diacylglycerol kinase, theta): #1 77.5
